Results: US9970152B2, “Method for functionalizing a solid material surface with self assembling or self aggregating cyclodextrins and products thereof” (Aalborg Universitet, priority 2010, dated 2018)

Test: Adsorption of CD onto PP non-woven fiber, measured by phenol assay
Conditions: 25 v/v % EtOH/water, at 6.43 mg/ml

## OC[C@H]1O[C@@H]2O[C@H]3[C@H](O)[C@@H](O)[C@@H](O[C@H]4[C@H](O)[C@@H](O)[C@@H](O[C@H]5[C@H](O)[C@@H](O)[C@@H](O[C@H]6[C@H](O)[C@@H](O)[C@@H](O[C@H]7[C@H](O)[C@@H](O)[C@@H](O[C@H]8[C@H](O)[C@@H](O)[C@@H](O[C@H]1[C@H](O)[C@H]2O)O[C@@H]8CO)O[C@@H]7CO)O[C@@H]6CO)O[C@@H]5CO)O[C@@H]4CO)O[C@@H]3CO [β CD, β-cyclodextrin]
  maximum coating in weight percent: 0.2 Wt. %
